Results are given in words; binding and its absence hold for the method and conditions named. Binding seen in cells or lysates may run through a third protein. Some entries that bind do so weakly or less than the wild type.
T1: TRAF6 (tumor necrosis factor receptor-associated factor 6), endogenous in adipocytes (mouse (endogenous in adipocytes)) (UniProt P70196)
T1 sequence: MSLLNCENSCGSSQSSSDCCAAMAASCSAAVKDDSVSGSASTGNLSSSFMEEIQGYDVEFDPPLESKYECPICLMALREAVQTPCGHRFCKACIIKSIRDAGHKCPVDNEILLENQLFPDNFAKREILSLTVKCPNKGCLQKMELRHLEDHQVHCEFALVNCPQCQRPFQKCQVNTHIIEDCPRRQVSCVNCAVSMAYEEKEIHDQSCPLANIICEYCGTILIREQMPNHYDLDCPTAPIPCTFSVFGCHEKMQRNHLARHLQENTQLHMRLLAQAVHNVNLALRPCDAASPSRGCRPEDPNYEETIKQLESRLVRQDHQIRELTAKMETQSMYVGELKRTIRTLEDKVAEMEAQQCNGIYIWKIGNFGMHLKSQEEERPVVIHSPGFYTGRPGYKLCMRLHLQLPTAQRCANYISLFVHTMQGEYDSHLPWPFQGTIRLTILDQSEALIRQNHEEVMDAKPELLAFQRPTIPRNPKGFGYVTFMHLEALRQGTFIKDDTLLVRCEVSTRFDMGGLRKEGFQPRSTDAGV

T2: transforming growth factor-β activated kinase 1 (TAK1), endogenous in adipocytes (mouse (endogenous in adipocytes)) (UniProt Q62073)
T2 sequence: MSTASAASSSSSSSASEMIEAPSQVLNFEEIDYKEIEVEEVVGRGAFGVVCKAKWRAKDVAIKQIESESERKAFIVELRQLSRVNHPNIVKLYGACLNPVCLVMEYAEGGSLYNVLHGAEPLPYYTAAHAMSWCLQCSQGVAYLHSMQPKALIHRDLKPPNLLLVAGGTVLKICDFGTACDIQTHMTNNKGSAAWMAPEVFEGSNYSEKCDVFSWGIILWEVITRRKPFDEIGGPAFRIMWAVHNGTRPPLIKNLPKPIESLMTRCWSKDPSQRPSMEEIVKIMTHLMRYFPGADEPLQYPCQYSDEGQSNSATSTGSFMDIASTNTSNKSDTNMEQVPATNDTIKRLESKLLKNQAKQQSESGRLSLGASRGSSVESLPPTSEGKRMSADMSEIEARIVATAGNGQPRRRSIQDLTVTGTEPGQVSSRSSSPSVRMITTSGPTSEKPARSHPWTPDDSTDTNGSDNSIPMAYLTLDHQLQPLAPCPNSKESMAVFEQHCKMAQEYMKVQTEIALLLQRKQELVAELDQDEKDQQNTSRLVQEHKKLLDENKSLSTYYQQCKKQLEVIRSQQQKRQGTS

B1: TRAF6 (tumor necrosis factor receptor-associated factor 6), endogenous in adipocytes (protein, UniProt P70196 1-530)
chain: T1 sequence

Legend:
[1] = biological target: T1, TRAF6 (tumor necrosis factor receptor-associated factor 6), endogenous in adipocytes (mouse (endogenous in adipocytes)); assay: co-IP; endogenous proteins in TNF-α (60 ng/ml; 30 min)-treated adipocytes, Flox or TRPM7 knockout/knockdown, with or without clamping of intracellular Ca2+; 1 mg lysate protein immunoprecipitated with the indicated antibodies at 4 °C overnight, Protein A/G Agarose, western blot
[2] = biological target: T2, transforming growth factor-β activated kinase 1 (TAK1), endogenous in adipocytes (mouse (endogenous in adipocytes)); assay: as above

| Molecule | binding [1] | binding [2] |
| --- | --- | --- |
| c-Cbl, endogenous in adipocytes (from UniProt P22682 1-913) | binds | – |
| B1 | – | binds |

— PMC9887063
